Reference: article PMC6733923
Results are given in words; binding and its absence hold for the method and conditions named. In cells and extracts the contact can be indirect. Some results given as binding are weak or reduced against the parent protein; the word gives no strength.

Amino acid sequences for entries named in this document (tags omitted).
UniProt Q05397: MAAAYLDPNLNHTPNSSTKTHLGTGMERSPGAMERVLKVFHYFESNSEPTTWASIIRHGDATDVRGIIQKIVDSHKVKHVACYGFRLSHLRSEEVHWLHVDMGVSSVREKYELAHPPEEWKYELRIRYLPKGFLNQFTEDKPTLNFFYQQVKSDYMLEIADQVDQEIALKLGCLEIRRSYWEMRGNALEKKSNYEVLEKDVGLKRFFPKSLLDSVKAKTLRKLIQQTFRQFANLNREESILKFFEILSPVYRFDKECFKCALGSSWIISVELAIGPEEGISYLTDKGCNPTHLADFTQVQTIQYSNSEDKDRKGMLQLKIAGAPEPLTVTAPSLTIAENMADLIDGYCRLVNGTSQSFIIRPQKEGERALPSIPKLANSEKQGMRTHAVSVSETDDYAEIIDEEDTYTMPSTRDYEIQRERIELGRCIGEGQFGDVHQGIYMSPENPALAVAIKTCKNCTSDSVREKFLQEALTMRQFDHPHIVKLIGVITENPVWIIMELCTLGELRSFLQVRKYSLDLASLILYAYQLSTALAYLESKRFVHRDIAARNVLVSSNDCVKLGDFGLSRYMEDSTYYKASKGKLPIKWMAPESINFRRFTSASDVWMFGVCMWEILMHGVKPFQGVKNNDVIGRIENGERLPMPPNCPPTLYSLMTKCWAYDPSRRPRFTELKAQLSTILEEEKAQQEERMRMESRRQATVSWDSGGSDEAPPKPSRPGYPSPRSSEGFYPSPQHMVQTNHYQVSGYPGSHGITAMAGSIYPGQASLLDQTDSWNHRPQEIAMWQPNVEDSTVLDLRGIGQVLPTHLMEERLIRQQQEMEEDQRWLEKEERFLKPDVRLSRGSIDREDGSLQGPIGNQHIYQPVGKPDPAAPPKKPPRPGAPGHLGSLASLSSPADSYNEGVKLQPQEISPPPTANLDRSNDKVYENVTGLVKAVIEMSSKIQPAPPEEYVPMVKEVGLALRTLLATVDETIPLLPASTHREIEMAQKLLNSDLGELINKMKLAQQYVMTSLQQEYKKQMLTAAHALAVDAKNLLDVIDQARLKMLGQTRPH

Legend:
[1] = target: T1, Zyxin (human (endogenous in HCT-116)) (UniProt Q15942); test: co-IP; reciprocal IP with polyclonal antibodies against zyxin or nesprin-1 from HCT-116 lysate (1500 µg total protein), Western blot for FAK; IgG control
T1 sequence: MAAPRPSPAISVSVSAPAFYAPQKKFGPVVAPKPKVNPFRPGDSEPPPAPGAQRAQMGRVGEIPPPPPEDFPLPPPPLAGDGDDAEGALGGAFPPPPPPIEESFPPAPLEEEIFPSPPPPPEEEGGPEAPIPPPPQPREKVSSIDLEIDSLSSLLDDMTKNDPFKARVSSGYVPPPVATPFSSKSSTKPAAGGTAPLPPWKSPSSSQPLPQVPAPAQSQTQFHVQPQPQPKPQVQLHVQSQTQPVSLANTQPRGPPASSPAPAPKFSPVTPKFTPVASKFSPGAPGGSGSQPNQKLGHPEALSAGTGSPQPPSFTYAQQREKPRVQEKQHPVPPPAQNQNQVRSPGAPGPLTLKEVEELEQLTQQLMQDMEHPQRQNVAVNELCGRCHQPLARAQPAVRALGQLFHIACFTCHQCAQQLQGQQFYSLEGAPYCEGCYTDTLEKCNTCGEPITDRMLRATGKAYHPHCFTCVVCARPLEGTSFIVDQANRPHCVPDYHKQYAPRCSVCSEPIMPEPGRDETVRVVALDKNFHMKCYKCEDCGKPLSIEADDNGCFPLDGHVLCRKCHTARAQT

[2] = target: Nesprin-1 (human (endogenous in HCT-116)) (UniProt Q8NF91); test: as above
[3] = target: Focal adhesion kinase 1 (human (endogenous in HCT-116)) (UniProt Q05397); test: co-IP; anti-FAK IP from lysate of EGF-stimulated HCT-116 cells, Western blot for zyxin, nesprin-1 and desmoplakin; IgG control

Row | Substance | binding [1] | binding [2] | binding [3]
1 | Focal adhesion kinase 1 (from UniProt Q05397 1-1052) | binds | binds | –
2 | Desmoplakin (from UniProt P15924-1 1-2871) | – | – | binds
3 | Nesprin-1 (from UniProt Q8NF91 1-8797) | – | – | binds
